# This list holds what a sample rich in hits left over. Inconclusive results are not listed. Calls of active or inactive are those of the source. Calls follow the shape of the dose curve; as a rule, active = well fitted inhibition curve with a large enough effect in the signal ratio, with a control signal flat (not every such curve was filed as active); inconclusive = small, poorly fitted or top-dose-only effect, or effect the other way, or a change in a side signal; inactive = flat fitted curve, though single readings scatter; the % refers to the signal ratio.
# Assay: qHTS Assay for Modulators of Lamin A Splicing
# Details: HeLa LMNA splicing GFP/RFP minigene ratio, 48 h; at 46.1 µM (top of the series)
# From the text: NCGC Assay Overview: Hutchinson-Gilford Progeria Syndrome (HGPS) is a pediatric premature aging disease caused by a spontaneous mutation in the lamin A/C (LMNA) gene. The mutation activates a cryptic splice site in the LMNA pre-mRNA which results in production of a pre-lamin A protein that cannot be processed properly. The mutant protein accumulates in the nucleus and negatively affects numerous cellular functions. Correction of the splicing defect in HGPS patient cells using a targeted oligonucleotide (exo11) leads to reversal of the cellular disease phenotypes. […] References: Bowen, W. P.; Wylie, P. G. Application of Laser-Scanning Fluorescence Microplate Cytometry in High Content Screening. […]
# NCGC Assay Protocol Summary: Reagents/Controls: Stable clones expressing DsRed2 and lamin A-EGFP were generated by Cell and Molecular Technologies in S3 HeLa cells. […] The cells were counted and resuspended in Opti-MEM I (no phenol red; Gibco), 2% FBS, 1% penicillin/ streptomycin (Gibco) at concentration of 120 cells/uL concentration. […] Following incubation the plates were read on the Acumen Explorer using the 488 nm laser. […] The ratio of the total object intensity in PMT1 (500-530 nm emission; GFP) over PMT3 (575-640 nm emission; RFP) was calculated for analysis. […]
# % is scaled to controls: 0 for no effect and ±100 for the full control effect.
row,Structure (SMILES),"ratio change, negative = inhibition"
1,CN1C2CCC1CC(OC(=O)C(O)c1ccccc1)C2 (stereo unspecified),inactive: -18.6%
